In publication PMC10656961:
These are yes or no findings as the source states them, for the method shown. Binding seen in cells or lysates may run through a third protein. Some results given as binding are weak or reduced against the parent protein; the word gives no strength. For some assays here: Sequences can lack the tags named with a protein.

Tests used:
[1] = target: T1, ubiquitin-specific protease 3 (USP3), endogenous (human (endogenous in the human cell lines of the paper; line not named)) (UniProt Q9Y6I4); assay: co-IP; endogenous proteins; cell lysates (IP lysis buffer) with antibodies against USP3 or WDTC1 at 4 °C overnight, protein A/G beads 1 h, western blot (Pierce Classic Magnetic Co-IP Kit)
T1 sequence: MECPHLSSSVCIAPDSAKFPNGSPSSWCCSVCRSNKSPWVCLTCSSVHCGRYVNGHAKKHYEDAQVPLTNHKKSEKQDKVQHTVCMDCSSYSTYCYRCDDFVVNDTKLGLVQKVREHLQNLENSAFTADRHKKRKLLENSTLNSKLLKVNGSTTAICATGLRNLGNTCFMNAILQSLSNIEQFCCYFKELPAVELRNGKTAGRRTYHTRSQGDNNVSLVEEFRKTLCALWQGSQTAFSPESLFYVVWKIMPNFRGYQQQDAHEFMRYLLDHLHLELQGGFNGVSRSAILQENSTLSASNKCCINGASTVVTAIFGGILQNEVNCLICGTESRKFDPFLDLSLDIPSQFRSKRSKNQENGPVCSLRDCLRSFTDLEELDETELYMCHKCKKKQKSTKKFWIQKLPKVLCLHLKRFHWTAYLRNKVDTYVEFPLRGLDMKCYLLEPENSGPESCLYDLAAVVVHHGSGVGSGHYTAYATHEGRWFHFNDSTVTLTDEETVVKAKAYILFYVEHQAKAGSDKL

USP3-GST fusion (human) = target: T2, USP3-GST fusion (human) (UniProt Q9Y6I4); assay: pull-down; USP3-GST (or control GST) from BL21 held on glutathione sepharose 4B beads, Flag-WDTC1 added, 3 h at 4 °C, rinsed with PBS, western blot
T2 sequence: T1 sequence

B1: WD40 and tetratricopeptide repeats 1 (WDTC1), endogenous (protein, UniProt Q8N5D0 1-677)
chain: MAKVNITRDLIRRQIKERGALSFERRYHVTDPFIRRLGLEAELQGHSGCVNCLEWNEKGDLLASGSDDQHTIVWDPLHHKKLLSMHTGHTANIFSVKFLPHAGDRILITGAADSKVHVHDLTVKETIHMFGDHTNRVKRIATAPMWPNTFWSAAEDGLIRQYDLRENSKHSEVLIDLTEYCGQLVEAKCLTVNPQDNNCLAVGASGPFVRLYDIRMIHNHRKSMKQSPSAGVHTFCDRQKPLPDGAAQYYVAGHLPVKLPDYNNRLRVLVATYVTFSPNGTELLVNMGGEQVYLFDLTYKQRPYTFLLPRKCHSSGEVQNGKMSTNGVSNGVSNGLHLHSNGFRLPESRGHVSPQVELPPYLERVKQQANEAFACQQWTQAIQLYSKAVQRAPHNAMLYGNRAAAYMKRKWDGDHYDALRDCLKAISLNPCHLKAHFRLARCLFELKYVAEALECLDDFKGKFPEQAHSSACDALGRDITAALFSKNDGEEKKGPGGGAPVRLRSTSRKDSISEDEMVLRERSYDYQFRYCGHCNTTTDIKEANFFGSNAQYIVSGSDDGSFFIWEKETTNLVRVLQGDESIVNCLQPHPSYCFLATSGIDPVVRLWNPRPESEDLTGRVVEDMEGASQANQRRMNADPLEVMLLNMGYRITGLSSGGAGASDDEDSSEGQVQCRPS
**Q.** B1 was tested. Which binding [1] did it give?
**A.** binds

B2: Flag-WDTC1 (protein, UniProt Q8N5D0 1-677)
chain: B1 chain
**Q.** Which binding (USP3-GST fusion (human)) does the source give for B2 here?
**A.** binds
